{
  "sequences": {"note": "Protein sequences, listed by entry. Tags and fused reporters are not part of them.", "UniProt Q91YE7": "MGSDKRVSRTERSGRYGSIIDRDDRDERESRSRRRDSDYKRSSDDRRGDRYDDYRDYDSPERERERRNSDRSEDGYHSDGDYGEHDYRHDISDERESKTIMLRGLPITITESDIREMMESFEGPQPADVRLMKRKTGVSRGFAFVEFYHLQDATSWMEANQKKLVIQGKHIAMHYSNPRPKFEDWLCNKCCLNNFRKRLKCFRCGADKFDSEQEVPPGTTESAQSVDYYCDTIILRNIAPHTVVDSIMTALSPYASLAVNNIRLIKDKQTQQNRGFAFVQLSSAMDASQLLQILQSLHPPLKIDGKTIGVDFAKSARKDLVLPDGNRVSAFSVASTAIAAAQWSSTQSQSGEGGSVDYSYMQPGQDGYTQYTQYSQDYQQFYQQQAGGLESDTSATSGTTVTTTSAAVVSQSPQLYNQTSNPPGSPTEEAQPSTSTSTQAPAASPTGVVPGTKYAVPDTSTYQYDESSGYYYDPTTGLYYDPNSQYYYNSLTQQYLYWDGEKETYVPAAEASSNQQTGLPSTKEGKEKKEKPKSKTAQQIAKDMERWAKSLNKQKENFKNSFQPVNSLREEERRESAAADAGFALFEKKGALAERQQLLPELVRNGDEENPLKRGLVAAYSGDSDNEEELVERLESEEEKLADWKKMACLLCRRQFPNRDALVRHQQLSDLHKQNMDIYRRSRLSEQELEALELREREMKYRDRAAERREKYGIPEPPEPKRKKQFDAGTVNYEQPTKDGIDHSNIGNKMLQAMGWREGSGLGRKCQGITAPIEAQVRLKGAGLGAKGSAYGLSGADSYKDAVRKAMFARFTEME", "UniProt P26369": "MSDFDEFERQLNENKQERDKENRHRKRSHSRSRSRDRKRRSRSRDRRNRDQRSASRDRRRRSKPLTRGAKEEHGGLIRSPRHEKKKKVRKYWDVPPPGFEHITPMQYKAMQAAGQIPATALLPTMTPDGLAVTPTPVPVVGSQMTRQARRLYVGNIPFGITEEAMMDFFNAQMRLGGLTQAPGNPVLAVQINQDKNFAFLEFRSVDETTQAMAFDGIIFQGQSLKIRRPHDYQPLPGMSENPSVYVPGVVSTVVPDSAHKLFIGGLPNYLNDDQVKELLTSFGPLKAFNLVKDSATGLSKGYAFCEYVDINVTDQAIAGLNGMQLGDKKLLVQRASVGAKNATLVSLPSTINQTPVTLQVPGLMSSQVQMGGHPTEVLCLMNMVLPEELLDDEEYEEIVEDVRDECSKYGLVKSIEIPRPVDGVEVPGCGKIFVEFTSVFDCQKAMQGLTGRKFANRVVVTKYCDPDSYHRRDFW"},
  "source": "paper PMC10356804",
  "molecules": {"B1": {"name": "DDX23 (protein, UniProt D3Z0M9 1-819)", "chain": "MAGELADKKDRDASPKEERKRSRTPERDRDRDRDRKSSPSKDRKRHRSRDRRRGGSRSRSRSRSKSVERERRHKERERDKERDRSKKERERDKDGHRRDKDRKRSSLSPGRGKDFKSRKDRDSKKGDEDEHGDKRPKIQPLSLEELLAKKKAEEEAEAKPKFLSKAEREAEALKRRQQEVEERQKMLEEERKKRKQFQDLGRKMLEDPQERERRERRERMERETNGNEDEEGRQKIREEKDKSKELHAIKERYLGGIKKRRRTRHLNDRKFVFEWDASEDTSIDYNPLYKERHQVQLLGRGFIAGIDLKQQKREQSRFYGDLMEKRRTLEEKEQEEARLRKLRKKEAKQRWDDRHWSQKKLDEMTDRDWRIFREDYSITTKGGKIPNPIRSWKDSSLPPHILEVIDKCGYKEPTPIQRQAIPIGLQNRDIIGVAETGSGKTAAFLIPLLVWITTLPKIDRIEESDQGPYAIILAPTRELAQQIEEETIKFGKPLGIRTVAVIGGISREDQGFRLRMGCEIVIATPGRLIDVLENRYLVLSRCTYVVLDEADRMIDMGFEPDVQKILEHMPVSNQKPDTDEAEDPEKMLANFESGKHKYRQTVMFTATMPPAVERLARSYLRRPAVVYIGSAGKPHERVEQKVFLMSESEKRKKLLAILEQGFDPPIIIFVNQKKGCDVLAKSLEKMGYNACTLHGGKGQEQREFALSNLKAGAKDILVATDVAGRGIDIQDVSMVVNYDMAKNIEDYIHRIGRTGRAGKSGVAITFLTKEDSAVFYELKQAILESPVSSCPPELANHPDAQHKPGTILTKKRREETIFA"}},
  "key": {"[1]": {"target": "RBM5 (mouse (endogenous in mouse brain)) (UniProt Q91YE7)", "assay": "affinity purification with mass spectrometry; endogenous RBM5 immunoprecipitated from WT and R6/2 HD mouse half-brain lysates (2 mg protein; 50 mM TrisHCl pH 7.5, 150 mM NaCl, 0.5% NP-40, 0.1% Na-deoxycholate, 5% glycerol, Benzonase) with protein-G beads cross-linked to mouse (AbM) or rabbit (AbR) anti-RBM5 antibody, 4 h at 4 °C; empty beads as control; only proteins enriched with both antibodies counted"}, "[2]": {"target": "RBM5 (mouse (endogenous in mouse brain)) (UniProt Q91YE7)", "assay": "affinity purification with mass spectrometry; endogenous RBM5 immunoprecipitated from WT and R6/2 HD mouse half-brain lysates (2 mg protein; 50 mM TrisHCl pH 7.5, 150 mM NaCl, 0.5% NP-40, 0.1% Na-deoxycholate, 5% glycerol, Benzonase) with protein-G beads cross-linked to mouse (AbM) or rabbit (AbR) anti-RBM5 antibody, 4 h at 4 °C; empty beads as control; only proteins enriched with both antibodies counted", "remark": "listed apart in the source"}},
  "note": "Like-named read-outs stand apart in the source and are kept apart here. These are yes or no findings as the source states them, for the method shown. Binding seen in cells or lysates may run through a third protein. Here binding means that the protein was enriched with, or labelled near, the bait; the list need not be complete.",
  "data": [
    {"molecule": "U2AF2 (U2AF65) (from UniProt P26369 1-475)", "values": [
      {"measurement": "binding", "setting": "[1]", "result": "binds"}
    ]},
    {"molecule": "B1", "values": [
      {"measurement": "binding", "setting": "[2]", "result": "binds"}
    ]}
  ]
}
